# PubChem BioAssay AID2417 (National Center for Advancing Translational Sciences (NCATS), 2010)
# The campaign covered roughly 140,000 compounds. About 4,300 (3.1%) were called active. Inconclusive results, whose numbers are uncertain, are shown with a selection of clear calls.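 How the source made its calls: active means readout at or below -70, meaning at least 70% loss of cells showing the perinucleolar compartment, a nuclear body marking cancer cells; inconclusive means readout between -30 and a set limit; inactive means the rest.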
# Assay: High Content Assay for Compounds that inhibit the Assembly of the Perinucleolar Compartment;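 further: plate controls were DMSO wells for no effect and camptothecin positive control wells for full effect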
# Details: PC3M PTB-GFP, PNC prevalence imaging, 16 h; at 10 µM; active compounds read low
# In short: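 Read-out is percentage of cells bearing a perinucleolar compartment, from automated 20x imaging of fixed, Hoechst-stained PC3M PTB-GFP cells. Cells were seeded 4 h, then exposed 16 h to compound (23 nl of library stock) in duplicate plates.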
row,SMILES,"activity change (PNC), negative = inhibition"
1,CCCSc1nc2c(c(=O)n1CC)SC(C)C2 (stereo not given),inconclusive: -37%
2,CCOCC(O)CNc1ccccc1 (stereo not given),inactive: 16.8%
3,COc1ccc(OCCC(=O)NC2=NCCS2)cc1,inconclusive: -55.3%
4,O=C(CSc1cccc2cccc(Cl)c12)NCc1cccs1,inconclusive: -41.8%
5,COc1ccc(C(=O)NCc2nnc(SCC(=O)Nc3cc(C)cc(C)c3)o2)cc1OC,inconclusive: -69.5%
6,COc1ccc(-c2nn(-c3ccccc3)cc2/C=N/n2cnnc2)cc1OC,inconclusive: -47%
7,COc1ncnc2sc3c(c12)CCCC3,inconclusive: -61.9%
8,c1ccc(-c2noc(-c3cccc4ccccc34)n2)nc1,inactive: 33.9%
9,CCCc1c(O)nc(SC2CC(=O)N(c3cc(OC)ccc3OC)C2=O)[nH]c1=O (stereo not given),inactive: -8.65%
10,Cc1onc(-c2ccccc2Cl)c1C(=O)N/N=C(\N)COc1ccc(Cl)cc1,inactive: 58.7%
11,O=C(NCCc1cccs1)C12CN(Cc3ccccc3)CC1C(c1cccc([N+](=O)[O-])c1)=NO2 (stereo not given),inconclusive: -73.1%
12,COc1cc(C(=O)OC2CCCCC2=O)cc(OC)c1C (stereo not given),inconclusive: -53.8%
13,Nc1nc(CSC(=S)N2CCN(c3ccccc3)CC2)nc(Nc2ccc(F)cc2)n1,inactive: 18%
14,CC1(C)CC(=O)C/C(=N/NC(=O)CCCOc2ccc(Cl)cc2Cl)C1,inactive: 41.4%
15,CC(=O)Nc1ccc(C(=O)n2nc(C)cc2C)cc1,inconclusive: -51.2%
16,CCN(CC)C(=O)COn1c(SCC(=O)N(CC)CC)nc2ccccc2c1=O,inconclusive: -30.2%
17,CCc1nnc(NC(=O)CN2CCN(C3CCCCC3)CC2)s1,inconclusive: -34.6%
18,COc1ccc(OC)c(S(=O)(=O)Nc2ccc(O)c3ccccc23)c1,inconclusive: -76.2%
19,CC(=O)Nc1ccc(C#Cc2ccc(NC(C)=O)cc2)cc1,inconclusive: -59.7%
20,COC(=O)c1ccc(NC(=S)N2CCN(Cc3ccccc3)CC2)cc1,inactive: 67.4%

row,SMILES,"activity change (PNC), negative = inhibition"
1,O=C(CCNc1cc(Cl)cc(Cl)c1)c1cccs1,inactive: 14.7%
2,O=c1c(/C=N/O)coc2ccc3ccccc3c12,inconclusive: -47.4%
3,O=C(CN(CC1CCCO1)S(=O)(=O)c1ccc(S(=O)(=O)NC2CC2)cc1)Nc1ccccc1 (stereo not given),inconclusive: -65%
4,CC1CCCC(C)N1CCNC(=O)Cn1nc(-c2ccccc2)ccc1=O (stereo not given),inconclusive: -43.6%
5,CCN(CC)CCOC(=O)c1ccc(NC(=O)/C=C/c2cccs2)cc1,inconclusive: -61.1%
6,O=[N+]([O-])c1ccc2nc(NCCCO)nc(-c3ccccc3)c2c1,inactive: 27.9%
7,Cc1c(C(=O)OC(C)C)sc(NC(=O)C2CCCO2)c1C(=O)OC(C)C (stereo not given),inactive: 21.1%
8,O=C(NCC1CCCO1)C1CCC(=O)N1Cc1ccc(F)cc1 (stereo not given),inactive: -16.1%
9,O=S(=O)(Cc1ccc(Cl)cc1)c1ccccc1-c1nnc(-c2ccccc2)o1,inconclusive: -63.8%
10,CCOc1ccc(NC(=O)c2cc(SC)ccc2Cl)cc1,inactive: -2.65%
11,COc1ccc(C=NCC2OCCc3ccccc32)cc1OC (stereo not given),inconclusive: -67%
12,CC(=O)C1=C(C)NC(SCC(N)=O)=C(C#N)C1C (stereo not given),inactive: 15.8%
13,CCCNC(=O)c1ccc(SC)cc1OC,inconclusive: -49.1%
14,COc1ccc(NC(=O)C2CCCO2)cc1 (stereo not given),inconclusive: -52.2%
15,CCN(CC)S(=O)(=O)c1ccc(N=Nc2c(C)[nH]n(C(N)=S)c2=O)cc1,inactive: 37.3%
16,N#Cc1nc(-c2cccc(Cl)c2)oc1NCc1cccnc1,inconclusive: -31.5%
17,Cc1ccc(Cn2c(CN3CCN(C(=O)c4ccco4)CC3)nc3c2c(=O)n(C)c(=O)n3C)cc1,inactive: -6.27%
18,COc1cc2c(cc1OC)C(c1cc3ccccc3oc1=O)=NC(C)(C)C2,inactive: 317%
19,O=C(CCn1c(=S)[nH]c2ccccc2c1=O)NCC1CCCO1 (stereo not given),inactive: 35.8%
20,O=C1c2ccccc2C(Nc2ccc3nc(-c4cccnc4)[nH]c3c2)N1Cc1ccco1 (stereo not given),inconclusive: -41.1%

row,SMILES,"activity change (PNC), negative = inhibition"
1,COc1cc(SC#N)ccc1N=Cc1c(C)[nH]n(-c2ccc(C)c(C)c2)c1=O,inactive: -3.04%
2,CCn1nnnc1SCC(=O)Nc1nc2ccc(OC)cc2s1,active: -100%
3,COC(=O)c1cccc2c1-c1ccccc1/C2=N/O,inactive: 26.1%
4,Cc1ccc(-n2nnnc2SCC(=O)Nc2ccccc2N2CCCCC2)cc1C,inactive: 21.2%
5,COc1ccc(Cc2nnc(NC(=O)C3CCCO3)s2)cc1OC (stereo not given),inconclusive: -65.6%
6,COc1ccc(NC(=S)N/N=C2/CCCc3c(C)cc(C)cc32)cc1,inconclusive: -45.8%
7,CCOC(=O)N1CCN(C(=O)c2cn(CCOC)c(=O)c3c2c2ccccc2n3C)CC1,inconclusive: -47%
8,CCOc1ccccc1NC(=O)Cn1nnc(C(=O)Nc2ccccc2Cl)c1N,inconclusive: -76%
9,Cc1ccc(OCC(=O)N/N=C\c2c(C)[nH]n(-c3ccccc3)c2=O)c([N+](=O)[O-])c1,inconclusive: -42.5%
10,CCOC(=O)C1CCN(C(=O)c2ccc(N(C)S(C)(=O)=O)cc2)CC1,inactive: -21.6%
11,CC(CS(=O)(=O)c1cccc2cccnc12)N1CCCCC1 (stereo not given),inactive: 44.1%
12,Cc1ccc(S(=O)(=O)N(Cc2nccn2C)C(C)C)cc1,inconclusive: -40.1%
13,CCn1c(CNC(=O)c2cccs2)n[nH]c1=S,active: -109%
14,COc1ccc(-c2noc(-c3ccco3)n2)cc1OC,inconclusive: -46.1%
15,O=C(/C=C/c1cccc([N+](=O)[O-])c1)NCCSCc1ccco1,active: -113%
16,COc1ccc(-c2ccc(SCC(=O)N3CCOCC3)nn2)cc1OC,inactive: -19%
17,Cc1ccc(S(=O)(=O)N/N=C\c2cccnc2)cc1,active: -87.8%
18,COc1ccc(C(=O)Nc2sc(C(=O)N(C)C)c(C)c2C#N)cc1[N+](=O)[O-],inactive: 33.5%
19,CCOc1cc2oc(=O)c3c(c2cc1Cl)CCC3,inconclusive: -54.1%
20,COc1ccccc1C(=O)N/N=C(\C)c1ccc(NC(=O)C2CC2)cc1,inconclusive: -37%

# Sorted by heavy-atom count (descending): some entries from above.
row,SMILES,"activity change (PNC), negative = inhibition"
16,COc1ccc(-c2ccc(SCC(=O)N3CCOCC3)nn2)cc1OC,inactive: -19%
14,COc1ccc(-c2noc(-c3ccco3)n2)cc1OC,inconclusive: -46.1%
13,CCn1c(CNC(=O)c2cccs2)n[nH]c1=S,active: -109%
